Data reported in patent US7427597B2, “Method of treating brain tissue damages” (Academia Sinica, priority 2005, dated 2008).
Not every detail of the peptide structures is certain; ends, links or a residue may be inferred. Where no end group is shown, it is not given here.

System: cerebral ischemia
Assay: Cerebral ischemia in c-kit mutant mice (W/W^ν) and normal littermates: BrdU labeling and H&E infarct volume
Assay type: in vivo
Details: SN 2 μg intracerebrally

For “TNEIVEEQYTPQSLATLESVFQELGKLTGPNNQ [SN, secretoneurin]”, the BrdU immunoreactive cells was “few”.
